Measurements as given in article PMC8715634.
Results are given in words; binding and its absence hold for the method and conditions named. Binding seen in cells or lysates may run through a third protein. These calls come from enrichment with a bait or labelling near it, and not all partners need be listed. Where a sequence is shown, tags or fusion partners need not be part of it.

T1: FLAG-hANO5-BioID2 (human) (UniProt Q75V66)
T1 sequence: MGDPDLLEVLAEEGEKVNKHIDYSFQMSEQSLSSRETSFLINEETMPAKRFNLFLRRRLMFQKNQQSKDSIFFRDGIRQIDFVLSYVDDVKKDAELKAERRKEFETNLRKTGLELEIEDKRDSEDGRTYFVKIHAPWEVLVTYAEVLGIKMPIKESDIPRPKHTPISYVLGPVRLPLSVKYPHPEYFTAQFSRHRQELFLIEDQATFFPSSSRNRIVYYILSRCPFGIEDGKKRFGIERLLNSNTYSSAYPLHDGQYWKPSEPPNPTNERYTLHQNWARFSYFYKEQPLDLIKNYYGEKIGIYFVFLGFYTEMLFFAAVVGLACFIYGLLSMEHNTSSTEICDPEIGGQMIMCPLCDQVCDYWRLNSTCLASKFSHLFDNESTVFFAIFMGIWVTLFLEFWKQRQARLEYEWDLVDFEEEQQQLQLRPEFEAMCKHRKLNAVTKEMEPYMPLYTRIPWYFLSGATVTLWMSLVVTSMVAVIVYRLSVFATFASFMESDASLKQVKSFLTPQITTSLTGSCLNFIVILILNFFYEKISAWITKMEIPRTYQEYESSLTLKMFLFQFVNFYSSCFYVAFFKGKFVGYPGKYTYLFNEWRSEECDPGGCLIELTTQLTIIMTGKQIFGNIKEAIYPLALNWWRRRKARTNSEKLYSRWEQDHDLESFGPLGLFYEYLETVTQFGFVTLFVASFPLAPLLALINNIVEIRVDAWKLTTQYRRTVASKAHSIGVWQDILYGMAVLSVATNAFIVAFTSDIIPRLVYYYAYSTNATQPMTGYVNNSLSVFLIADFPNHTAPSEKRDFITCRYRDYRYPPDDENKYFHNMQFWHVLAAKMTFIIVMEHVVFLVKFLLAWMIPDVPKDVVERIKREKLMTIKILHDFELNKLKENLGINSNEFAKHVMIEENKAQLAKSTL


Molecular target: T1, FLAG-hANO5-BioID2 (human)
Test: proximity labelling; BioID2; C2C12 myotubes stably expressing the BioID2 fusion, 50 uM biotin for 16 h; biotinylated proteins isolated on streptavidin magnetic beads and identified by mass spectrometry (minimum 2 unique peptides, FDR below 1.0%)

binding	Binder
binds	POPDC3, endogenous in C2C12 (protein, UniProt Q9ES81 1-291) MEKNSSLWKSLVTEHPLCTTWKQEAEGAIYHLASILFVVGFMGGSGFFGLLYVFSLLGLGFLSSAVWAWVDICAADIFSWNFVLFVICFMQFVHIAYQVHSITFARDFHVLYSSLFKPLGIPLPVFRTIALSSEVVSLEKEHCYAMQGKTSIDRLSVLISGRIRVTVDGEFLHYISPFQFLDSPEWDSLRPTEEGIFQVTLTADTDCRYVSWRRKKLYLLFAQHRYISRLFSVLIGSDIADKLYALNDRVYIGKKHHYDIRLPNYYHMSTPDLSRSPLTEQFRNSRQHCNK
binds	BVES, endogenous in C2C12 (protein, UniProt Q9ES83 1-358) MNSTESIPLAQSTVAGFTSELESLTPVPSNETTCENWREIHHLVFHVANVCFAVGLLIPTTLHLHMILLRVMLSLGCTLYVVWATLYRCALDVMIWNSVFLGINILHLSYLLYKKRPVKIEKELGGVYHRLFEPLRVPPDLFRRLTGQFCMIQTLKRGQVYATEDKTSVDDRLSILLKGRMKVSYRGHFLHNIYPCAFIDSPEFRSTQMHKGEKFQVTIVADDNCRFLCWSRERLTYFLESEPFLYEIFRYLIGKDITNKLYSLNDPTLNDKKVKKLEPQMSLCTQISMLEMRNSITSSSDGEDGLHHFLRGSSSTASLPMSSPQQRASAKMKPIEEGVEDDDEVFVSPDALKVHQLP
